Measured values taken from PubChem BioAssay AID504834 (National Center for Advancing Translational Sciences (NCATS), 2011).
The campaign covered roughly 320,000 compounds. About 22,000 (6.9%) were called active. This list was built around the results that the source calls inconclusive (neither active nor inactive); the mix of calls is not that of the screen. Calls follow the shape of the dose curve; as a rule, active = well fitted inhibition curve with a large enough effect; inconclusive = small, poorly fitted or top-dose-only effect, or another doubt; inactive = no such curve, though single readings can be large or run the other way. Potencies of inconclusive entries are doubtful fits and often do not repeat.

assay: Primary qHTS for delayed death inhibitors of the malarial parasite plastid, 96 hour incubation; conditions: P. falciparum luciferase reporter growth; series mostly up to 28.7 µM; activity change, negative = inhibition: at the top concentration
Method in brief: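 Erythrocytes infected with luciferase-expressing P. falciparum were dispensed at 2% hematocrit and 0.05% parasitemia (final), then incubated with compounds 96 hours at 37 C in 5% CO2. Luminescence after detection reagent addition reported growth.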
% is scaled to controls: 0 for no effect and ±100 for the full control effect; potency is read from the fitted curve at half-maximal effect.

SMILES | Potency | activity change, negative = inhibition
CC(=O)C1=C(O)C(=O)N(c2ccc(O)cc2)C1c1ccccc1Cl (stereo not given) | inconclusive: 13.1 µM [inhibitor, single point] | 
CC(C)(C)c1ccc(C(=O)Nc2cccc([N+](=O)[O-])c2)cc1 | inconclusive: 0.0041 µM [inhibitor, full curve, poor fit] | 
O=C(NCc1ccc(F)cc1)c1cnccn1 |  | inactive: 41%
O=C(Cc1ccccc1)N/N=C/c1ccc(S(=O)(=O)O)o1 |  | inactive: 22.8%
CCc1cccc(NC(=O)CCNC(=O)Cn2ccc3ccccc3c2=O)c1 | inconclusive: 18.5 µM [inhibitor, single point] | 
CC1CCCCN1C(=O)CSc1nc(C2CC2)nc2ccccc12 (stereo not given) |  | inactive: -40.7%
COCCN(C(=O)CCC(=O)Nc1cc(C)on1)C(C(=O)NC1CCCC1)c1ccc(C)cc1 (stereo not given) | inconclusive: 0.415 µM [inhibitor, full curve] | 
C=C(C)C(=O)Nc1cccc(C2=NOC3(C2)C[C@H](C(N)=O)N(C(=O)COc2ccc(Cl)cc2)C3)c1 (stereo not given in full) | inconclusive: 9.28 µM [inhibitor, single point] | 
COc1ccc(OC)c(C2C(C(=O)c3cccs3)=C(O)C(=O)N2CCN2CCOCC2)c1 (stereo not given) |  | inactive: -2.24%
Cc1ccc2[nH]c(=O)c(CN(CC3CCCO3)S(=O)(=O)c3c(C)ccc4nsnc34)cc2c1 (stereo not given) | inconclusive: 9.28 µM [inhibitor, single point] | 
c1ccc(-c2cnnc(N3CCCCC3)n2)cc1 | inconclusive: 18.5 µM [inhibitor, single point] | 
COc1ccc(-c2noc(CCC(=O)NCC3CCCO3)n2)cc1OC (stereo not given) |  | inactive: 36.5%
COCCN(CCOC)Cc1c(O)ccc2c3c(c(=O)oc12)CCC3 | inconclusive: 8.28 µM [inhibitor, partial curve, poor fit] | 
O=C(CCC1N=C2c3ccccc3N=C(SCc3ccc(Cl)cc3)N2C1=O)NCc1ccco1 (stereo not given) |  | inactive: 24.6%
CC(=O)c1cccc(NC(=O)CCS(=O)(=O)c2cccc3nonc23)c1 | inconclusive: 18.5 µM [inhibitor, single point] | 
O=C(COC(=O)/C=C/c1ccc(Cl)cc1Cl)Nc1cc(C(F)(F)F)ccc1N1CCOCC1 |  | inactive: 0.515%
O=C(CC(NC(=O)OCc1ccccc1)C(=O)O)OCc1ccccc1 (stereo not given) |  | inactive: 24.4%
CCOC(=O)N1CCC(NC(=O)CS(=O)(=O)Cc2nc(-c3cccc(Cl)c3)oc2C)CC1 | inconclusive: 18.5 µM [inhibitor, single point] | 
O=C(COC(=O)c1ccccc1C(=O)c1ccc(Cl)cc1)NC(c1ccccc1)c1ccccc1 | inconclusive: 18.5 µM [inhibitor, single point] | 
O=[N+]([O-])c1[nH]cnc1/C=C/c1ccccc1 | inconclusive: 10.4 µM [inhibitor, single point] | 
COc1ccc(CCN(C)C(=O)COc2ccc(C(=O)c3ccccc3)cc2)cc1OC | inconclusive: 7.38 µM [inhibitor, partial curve] | 
CCN(CC)CCn1c2c(c(SCC(=O)Nc3nc(C)cs3)nc1=O)CCC2 | inconclusive: 11.7 µM [inhibitor, single point] | 
O=C(COC(=O)c1ccc(O)cc1)Nc1cccc(S(=O)(=O)NC2=NCCC2)c1 | active: 6.57 µM | 

In the list so far, three have an aryl methoxy group.
SMILES | Potency | activity change, negative = inhibition
COc1ccc(OC)c(C2C(C(=O)c3cccs3)=C(O)C(=O)N2CCN2CCOCC2)c1 (stereo not given) |  | inactive: -2.24%
COc1ccc(-c2noc(CCC(=O)NCC3CCCO3)n2)cc1OC (stereo not given) |  | inactive: 36.5%
COc1ccc(CCN(C)C(=O)COc2ccc(C(=O)c3ccccc3)cc2)cc1OC | inconclusive: 7.38 µM [inhibitor, partial curve] | 

Later entries.

SMILES | Potency | activity change, negative = inhibition
Cc1ccc(NS(=O)(=O)c2ccc(NC(=O)CSc3ccc(Cl)cc3)cc2)c(C)c1 | inconclusive: 2.94 µM [inhibitor, full curve, poor fit] | 
Cc1cc(C)cc(NC(=S)NCCc2ccc(S(N)(=O)=O)cc2)c1 | active: 1.65 µM | 
COc1ccc(C(=O)NNC(=O)CSc2nc(C(C)C)nc3ccccc23)cc1 | inconclusive: 7.38 µM [inhibitor, partial curve, poor fit] | 
CC/C(=N\NC(=O)c1ccc(N2CCCC2=O)cc1)c1ccccc1 | inconclusive: 2.94 µM [inhibitor, partial curve, poor fit] | 
COc1ccc2nc3sc(C(=O)NCCCN4CCc5ccccc5C4)cc3cc2c1 |  | inactive: 35%
c1ccc(CCn2nnnc2CN2CCC(n3nnc4ccccc43)CC2)cc1 |  | inactive: 79.1%
CCn1c(SCC(=O)Nc2ccccc2F)nnc1-c1ccoc1C | inconclusive: 0.147 µM [inhibitor, partial curve, poor fit] | 
CC(C)CCSc1nc2[nH]ncc2c(=O)[nH]1 |  | inactive: 12.8%
Cc1cc(C)c(S(=O)(=O)Nn2cnnc2)c(C)c1 | inconclusive: 9.28 µM [inhibitor, single point] | 
CCN(CC)C1CCN(C(=O)CCc2nnc(CCc3ccccc3)o2)C1 (stereo not given) |  | inactive: -20.5%
O=C1c2[nH]nc(-c3ccccc3O)c2C(c2ccc(F)cc2)N1CC1CCCO1 (stereo not given) | inconclusive: 1.17 µM [inhibitor, partial curve, poor fit] | 
CC(NCC(O)COCc1cccs1)C1CC2CCC1C2 (stereo not given) | inconclusive: 14.7 µM [inhibitor, single point] | 
COc1ccc(CNc2nc3ccccc3n2Cc2ccc(Cl)cc2)cc1OC | inconclusive: 11.7 µM [inhibitor, single point] | 
CCc1nnc(NC(=O)c2c(O)c3c([nH]c2=O)CCCC3)s1 |  | inactive: 60.9%
CC(COc1ccccc1)N1CCC(CO)(Cc2ccccc2)CC1 (stereo not given) |  | inactive: -4.18%
Cc1ccc([C@@H]2C[C@H]3CN(Cc4cccc(Cl)c4)C(=O)[C@]34CCCN24)o1 | inconclusive: 16.5 µM [inhibitor, single point] | 
Cc1ccc(C)c(S(=O)(=O)N2CCCC2CNC(=O)C(=O)NC2CCCCCC2)c1 (stereo not given) | inconclusive: 18.5 µM [inhibitor, single point] | 
Cn1ncc2c(Nc3ccccc3Cl)nc(Nc3ccccc3Cl)nc21 | inconclusive: 9.28 µM [inhibitor, partial curve, poor fit] | 
CC(C)(C)c1ccc(OCCC(=O)Nc2cccc(S(=O)(=O)NC3=NCCCCC3)c2)cc1 | inconclusive: 4.15 µM [inhibitor, full curve, poor fit] | 
Cc1cc(C)cc(NC(=O)c2cc(Cl)sc2Cl)c1 |  | inactive: 46.4%
Cc1cc(=O)[nH]c(N/N=C/c2ccc3c(c2)OCCO3)n1 |  | inactive: 78.7%
COc1cccc(NC(=O)Nc2ccc3c(c2)nc(C)n3C)c1 |  | inactive: 41.1%
